Reference: publication PMC9740379

Target: T1, CD229 (signaling lymphocytic activation molecule family 3), FLAG-tagged, overexpressed in MM cells (human) (UniProt Q9HBG7)
T1 sequence: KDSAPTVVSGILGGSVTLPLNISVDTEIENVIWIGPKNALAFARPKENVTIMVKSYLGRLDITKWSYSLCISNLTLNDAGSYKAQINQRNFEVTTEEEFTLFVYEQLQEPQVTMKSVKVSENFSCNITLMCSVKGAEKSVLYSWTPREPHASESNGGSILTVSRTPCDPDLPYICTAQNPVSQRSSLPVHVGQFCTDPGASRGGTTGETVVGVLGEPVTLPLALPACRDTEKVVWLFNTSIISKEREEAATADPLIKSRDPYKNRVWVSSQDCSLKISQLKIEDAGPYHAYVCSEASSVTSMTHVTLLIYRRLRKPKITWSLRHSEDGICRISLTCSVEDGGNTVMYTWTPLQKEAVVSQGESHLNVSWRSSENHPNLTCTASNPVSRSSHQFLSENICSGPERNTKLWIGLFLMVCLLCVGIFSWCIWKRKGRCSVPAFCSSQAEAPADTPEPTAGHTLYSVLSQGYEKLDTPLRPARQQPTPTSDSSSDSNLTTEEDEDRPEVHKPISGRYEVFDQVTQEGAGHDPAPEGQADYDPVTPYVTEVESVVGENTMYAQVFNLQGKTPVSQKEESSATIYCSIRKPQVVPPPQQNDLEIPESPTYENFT
Assay: affinity purification with mass spectrometry; Co-IP coupled with MS (Co-IP/MS) from CD229-OE cells; proteins separated by SDS-PAGE, gel bands digested with trypsin, Q-Exactive

B1: RAS Protein Activator Like 3 (RASAL3) (protein, UniProt Q86YV0 1-1011)
chain: MDPPSPSRTSQTQPTATSPLTSYRWHTGGGGEKAAGGFRWGRFAGWGRALSHQEPMVSTQPAPRSIFRRVLSAPPKESRTSRLRLSKALWGRHKNPPPEPDPEPEQEAPELEPEPELEPPTPQIPEAPTPNVPVWDIGGFTLLDGKLVLLGGEEEGPRRPRVGSASSEGSIHVAMGNFRDPDRMPGKTEPETAGPNQVHNVRGLLKRLKEKKKARLEPRDGPPSALGSRESLATLSELDLGAERDVRIWPLHPSLLGEPHCFQVTWTGGSRCFSCRSAAERDRWIEDLRRQFQPTQDNVEREETWLSVWVHEAKGLPRAAAGAPGVRAELWLDGALLARTAPRAGPGQLFWAERFHFEALPPARRLSLRLRGLGPGSAVLGRVALALEELDAPRAPAAGLERWFPLLGAPAGAALRARIRARRLRVLPSERYKELAEFLTFHYARLCGALEPALPAQAKEELAAAMVRVLRATGRAQALVTDLGTAELARCGGREALLFRENTLATKAIDEYMKLVAQDYLQETLGQVVRRLCASTEDCEVDPSKCPASELPEHQARLRNSCEEVFETIIHSYDWFPAELGIVFSSWREACKERGSEVLGPRLVCASLFLRLLCPAILAPSLFGLAPDHPAPGPARTLTLIAKVIQNLANRAPFGEKEAYMGFMNSFLEEHGPAMQCFLDQVAMVDVDAAPSGYQGSGDLALQLAVLHAQLCTIFAELDQTTRDTLEPLPTILRAIEEGQPVLVSVPMRLPLPPAQVHSSLSAGEKPGFLAPRDLPKHTPLISKSQSLRSVRRSESWARPRPDEERPLRRPRPVQRTQSVPVRRPARRRQSAGPWPRPKGSLSMGPAPRARPWTRDSASLPRKPSVPWQRQMDQPQDRNQALGTHRPVNKLAELQCEVAALREEQKVLSRLVESLSTQIRALTEQQEQLRGQLQDLDSRLRAGSSEFDSEHNLTSNEGHSLKNLEHRLNEMERTQAQLRDAVQSLQLSPRTRGSWSQPQPLKAPCLNGDTT
- binding: binds

Results are given in words; binding and its absence hold for the method and conditions named. In cells and extracts the contact can be indirect. A yes stands for co-enrichment or nearness to the bait. Other partners may have been found. Tags and fused reporters may be left off the sequences shown.
